Source: PubChem BioAssay AID743255 (National Center for Advancing Translational Sciences (NCATS), 2014)
Hit rate of the full screen: of about 390,000 compounds, about 910 (0.23%) were called active. The inconclusive results got no clear call from the source; some entries with a clear call stand among them for comparison. Calls follow the shape of the dose curve; as a rule, active = well fitted inhibition curve with a large enough effect; inconclusive = small, poorly fitted or top-dose-only effect; inactive = no such curve, though single readings can be large or run the other way. Potencies of inconclusive entries are doubtful fits and often do not repeat.

Amino acid sequences for entries named in this document (tags omitted). A change or cut given only in a name is not applied to a line headed by its entry.
UniProt O94782: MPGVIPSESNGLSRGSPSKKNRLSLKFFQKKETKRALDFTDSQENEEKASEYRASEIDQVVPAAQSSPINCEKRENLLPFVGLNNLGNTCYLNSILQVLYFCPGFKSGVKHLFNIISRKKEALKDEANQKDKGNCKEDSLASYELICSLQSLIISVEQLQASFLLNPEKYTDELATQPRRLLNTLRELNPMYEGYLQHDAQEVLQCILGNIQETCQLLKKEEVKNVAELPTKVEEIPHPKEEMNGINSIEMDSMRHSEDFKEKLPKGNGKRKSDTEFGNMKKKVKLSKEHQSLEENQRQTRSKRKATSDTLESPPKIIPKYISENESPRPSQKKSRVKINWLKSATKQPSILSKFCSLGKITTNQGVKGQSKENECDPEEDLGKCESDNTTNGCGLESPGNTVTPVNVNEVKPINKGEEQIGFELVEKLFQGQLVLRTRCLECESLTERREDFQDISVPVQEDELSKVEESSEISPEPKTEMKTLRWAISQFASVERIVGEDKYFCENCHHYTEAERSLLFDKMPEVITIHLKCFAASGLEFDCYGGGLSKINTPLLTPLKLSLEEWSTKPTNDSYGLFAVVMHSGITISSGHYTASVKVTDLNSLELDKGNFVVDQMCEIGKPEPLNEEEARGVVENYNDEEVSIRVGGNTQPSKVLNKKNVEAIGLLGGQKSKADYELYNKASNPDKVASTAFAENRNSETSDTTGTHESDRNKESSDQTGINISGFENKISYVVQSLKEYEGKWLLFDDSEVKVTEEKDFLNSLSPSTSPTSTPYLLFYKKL

Biological target: Ubiquitin carboxyl-terminal hydrolase 1 (Homo sapiens) (UniProt O94782)
Experiment: Inhibitors of USP1/UAF1: Primary Screen; also: nearly all actives have a fitted effect of over 60% in size
Conditions: recombinant USP1/UAF1, Ub-Rhodamine cleavage fluorescence; activity change, negative = inhibition: at 57.1 µM (top of the series)
Summary of the method: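 1 nM enzyme complex + cpd, 15 min RT; start with Ub-Rho 150nM final; kinetic fluorescence ex 480/em 540, 6 reads q60 s. Buffer 50mM HEPES pH 7.8, 0.5mM EDTA, 0.1 mg/ml BSA, 1mM TCEP, 0.01% Tween-20.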
% is scaled to controls: 0 for no effect and ±100 for the full control effect; potency is read from the fitted curve at half-maximal effect.

Compound	activity change, negative = inhibition	Potency
COc1ccc(OC)c(NC(=O)CCn2cccn2)c1	inactive: -1.47%	
C=CCOc1ccc(/C=C/C(=O)OCC(=O)NCC2CCCCC2)cc1	inactive: -16.6%	
O=C1C(=NO)CCc2ccccc21		inconclusive: 31.6 µM [inhibitor, partial curve]
COc1cccc(NC(=O)c2sc3ncn(CC(=O)N4CCN(c5ccccn5)CC4)c(=O)c3c2C)c1		inconclusive: 50.1 µM [inhibitor, partial curve, poor fit]
CCOC(=O)c1ccc(NC2=CC(=O)C(=O)c3ccccc32)cc1		active: 7.94 µM
CCN(CC)S(=O)(=O)c1ccc(C(=O)OCCN2C(=O)c3cccc4c(N5CCOCC5)ccc(c34)C2=O)cc1		inconclusive: 7.08 µM [inhibitor, single point]
O=C(CCS(=O)(=O)c1nc(-c2cccs2)cc(C(F)(F)F)n1)Nc1ccc(F)c(Cl)c1		inconclusive: 44.7 µM [inhibitor, partial curve]
CCOc1ccc(CCNC(=O)c2ccc3c(c2)nc2n3CCOC2)cc1OCC	inactive: 1.09%	
COc1ccc(CCn2c(=O)c3cccnc3n(CC(=O)Nc3ccc(C)cc3C)c2=O)cc1OC	inactive: -20.9%	
Cn1cc(C(=O)Nc2ccc(C#N)cc2)c2ccccc2c1=O		inconclusive: 44.7 µM [inhibitor, single point]
COc1ccc2c(-c3ccccc3)cc(SCC(=O)NC3CCS(=O)(=O)C3)nc2c1 (configuration not stated)	inactive: -4.69%	
O=C(Nc1cccc(C(=O)O)c1)/C(=C\c1ccc2c(c1)OCO2)NC(=O)c1ccc(Br)o1		inconclusive: 22.4 µM [inhibitor, partial curve]
CCOC(=O)c1ccc2c(c1)nc(SCC(=O)N1CCCCC1)n2CC	inactive: 2.01%	
O=C(CC1SC(=O)N(c2ccccc2)C1=O)Nc1cccc2ccccc12 (configuration not stated)	inactive: -17.5%	
C#CCN1C=CC(=O)[C@@H](OC(=O)Nc2ccc(C)cc2)[C@H]1c1ccccc1Br		inconclusive: 35.5 µM [inhibitor, single point]
CCCOC(=O)c1ccc(-c2ccc(C=O)o2)cc1	inactive: -1.32%	
COC(=O)CSc1ncc2c(n1)-c1ccccc1N(Cc1cccc(F)c1)S2(=O)=O		inconclusive: 8.91 µM [inhibitor, partial curve, poor fit]
CSc1ccc(CN(C)C(=O)CNC(=O)CNS(=O)(=O)c2ccc(C)c(C)c2)cc1		inconclusive: 5.62 µM [inhibitor, full curve, poor fit]
COc1cc(NC(=O)COC(=O)c2[nH]c(C)c(C(C)=O)c2C)cc(OC)c1		inconclusive: 12.6 µM [inhibitor, single point]
CC(C)CCNC(=O)C(C)N(C(=O)c1snc(C(N)=O)c1N)c1cnc2ccccc2c1 (configuration not stated)		inconclusive: 31.6 µM [inhibitor, single point]
CCOc1ccccc1N(CC(=O)Nc1cccc(OC)c1)S(=O)(=O)c1ccccc1		inconclusive: 44.7 µM [inhibitor, partial curve]
O=S(=O)(/N=C(/NC(=S)Nc1ccccc1)c1ccccc1)c1ccc(Cl)cc1	inactive: -13.7%	
O=S(=O)(O)c1cc(O)c2cc(Nc3ccccc3)ccc2c1		inconclusive: 35.5 µM [inhibitor, partial curve, poor fit]

Compound	activity change, negative = inhibition	Potency
COc1ccc(OC)c(C2C(C#N)=C(N)Oc3c2c(C)nn3-c2cccc(Cl)c2)c1 (configuration not stated)	inactive: -4.09%	
CCOC(=O)c1cnc2ccccc2c1Nc1cccc(OC)c1	inactive: -16.3%	
CCOC(=O)C1=C(C)N=c2s/c(=C\c3ccc(OCC(=O)O)cc3)c(=O)n2C1c1ccc(OC(C)C)cc1 (configuration not stated)		inconclusive: 31.6 µM [inhibitor, single point]
CCc1ccc(C(=O)NC(Cc2c[nH]c3ccccc23)C(=O)OCC(=O)c2ccc(Br)cc2)cc1 (configuration not stated)		inconclusive: 158 µM [inhibitor, partial curve, poor fit]
Cc1ccc(-c2nnc(SCC(=O)NCc3ccccc3)nc2-c2ccc(C)cc2)cc1		inconclusive: 39.8 µM [inhibitor, partial curve, poor fit]
Cc1nn(C(C)C(=O)Nc2ccccc2Cl)c(=O)c2nn(-c3ccccc3)c(C)c12 (configuration not stated)	inactive: -11%	
CC(Oc1ccccc1)C(=O)N=Nc1c(O)[nH]c2ccc([N+](=O)[O-])cc12 (configuration not stated)		inconclusive: 35.5 µM [inhibitor, partial curve]
COc1cc(NC(=O)c2cccc(C)c2)c(OC)cc1NC(=O)CN1CCCCC1		inconclusive: 20 µM [inhibitor, partial curve, poor fit]
OC(CNCCNc1ncccc1C(F)(F)F)COc1ccc(F)cc1 (configuration not stated)	inactive: 0.0251%	
COCCNC(=O)Cn1cc(/C=N/NC(=O)c2ccc(Oc3ccc(O)cc3)cc2)c2ccccc21		inconclusive: 4.47 µM [inhibitor, single point]
CCN1CCN(c2cc(-c3ccccc3)nc3cc(-c4cccc(F)c4)nn23)CC1		inconclusive: 44.7 µM [inhibitor, partial curve, poor fit]
Cn1ncc2c(Nc3ccc(-c4ccccc4)cc3)ncnc21		inconclusive: 28.2 µM [inhibitor, partial curve]
O=C(CN(C(=O)CSc1nc2ccccc2o1)c1cccc(F)c1)NC1CCCCC1		inconclusive: 17.8 µM [inhibitor, partial curve]
Cc1ccc(C(=O)N(CN2CCCC2=O)c2ccc(F)cc2)cc1C		inconclusive: 12.6 µM [inhibitor, partial curve, poor fit]
CCOC(=O)c1cc(-c2ccccc2)n(CCC(=O)Nc2nc3c(C)cccc3s2)c1C		inconclusive: 44.7 µM [inhibitor, partial curve]
Cc1ccccc1NS(=O)(=O)c1ccc2[nH]c3c(c2c1)CCCCC3	inactive: -19.3%	
O=C1CC[C@@H](O)CCN1CC[C@H](Sc1ccc(Br)cc1)c1ccccc1		inconclusive: 14.1 µM [inhibitor, partial curve]
CCOC(=O)c1cc(-c2ccccc2)n(CCCC(=O)Nc2ccc(C)cc2Cl)c1C		inconclusive: 0.501 µM [inhibitor, full curve]
CCc1nn2c(=O)cc(COC(=O)C3CCCCC3)nc2s1	inactive: -10.5%	
Cc1ccc(CNc2ncnc3c2cnn3-c2ccc(C)cc2C)cc1		inconclusive: 10 µM [inhibitor, partial curve, poor fit]
Cc1ccc(CNC(=O)c2ccc3c(c2)nc2n3CCCC2)cc1	inactive: -13.3%	
COc1ccc(-c2cc(OC(=O)c3cccc(C)c3)c3c(C)oc(C)c3c(=O)c2)cc1		inconclusive: 44.7 µM [inhibitor, partial curve, poor fit]
Cc1cc(C)c(NC(=O)Cn2nnc(C(=O)Nc3ccc(F)cc3F)c2N)c(C)c1		inconclusive: 7.08 µM [inhibitor, single point]

Compound	activity change, negative = inhibition	Potency
COc1ccc(-c2nnc(SCC(=O)Nc3cccc(Cl)c3C)nc2-c2ccc(OC)cc2)cc1		inconclusive: 7.94 µM [inhibitor, partial curve]
Cc1cc(C)n(-c2nc(C)c(C)c(=O)n2CC(=O)Nc2ccc(Cl)c(Cl)c2)n1	inactive: 16.5%	
Cn1c(=O)c2[nH]c(N=Nc3ccc(N)cc3N)nc2n(C)c1=O	inactive: -24.1%	
CCOc1cc(CNCCO)cc(Br)c1OCc1cccs1	inactive: -14.7%	
Cc1cccc(C(=O)O[C@@H]2[C@H](Cc3ccccc3)NS(=O)(=O)[C@H]3C[C@@H]4C=C[C@]23O4)c1		inconclusive: 44.7 µM [inhibitor, partial curve, poor fit]
COc1cccc(Nc2n[nH]c(=S)s2)c1	inactive: -15.9%	
Cc1nc2scc(-c3ccccc3)c2c(=O)n1N=C1C=CC(=O)C=C1		inconclusive: 25.1 µM [inhibitor, partial curve]
Cc1ccc(CNC(=O)c2cccc3c2C(=O)c2ccc(N4CCOCC4)cc2S3(=O)=O)cc1		inconclusive: 89.1 µM [inhibitor, partial curve, poor fit]
COc1ccc(-n2nnc(C(=O)Nc3ccccc3F)c2N)cc1	inactive: -12.5%	
COCCCNc1nc(-c2ccc(Cl)cc2)nc2ccccc12		inconclusive: 22.4 µM [inhibitor, partial curve]
CCCn1cc(S(=O)(=O)c2cc(C)ccc2C)c(=O)c2cc(F)c(N3CCCCCC3)cc21		inconclusive: 6.31 µM [inhibitor, single point]
Cc1cc(C)c2c(=O)cc(C(=O)Nc3ccc(S(=O)(=O)Nc4onc(C)c4C)cc3)oc2c1		inconclusive: 7.94 µM [inhibitor, partial curve, poor fit]
Cc1cccc(Cc2c(C)nc3nc(SCC(=O)NCc4ccc(F)cc4)nn3c2C)c1		inconclusive: 4.47 µM [inhibitor, partial curve]
Cc1cc(C(=O)CN2C(=O)c3ccccc3S2(=O)=O)c(C)n1CC1CCCO1 (configuration not stated)	inactive: -21%	
CS(=O)(=O)N(CCc1ccccc1)CC(=O)NCc1ccc(Cl)cc1		inconclusive: 31.6 µM [inhibitor, partial curve]
Cc1cc2nn(-c3ccc(F)cc3)nc2cc1N	inactive: -19.9%	
C=CCNC(=S)Nc1ccccc1		inconclusive: 5.01 µM [inhibitor, partial curve]
Cc1ccc(NC(=S)N2CCCCC2)cc1C		inconclusive: 35.5 µM [inhibitor, partial curve]
Cc1ccc(NC(=S)Nc2ccc3nc(-c4ccccn4)c(-c4ccccn4)nc3c2)cc1C	inactive: -25.8%	
CN(C(=O)c1c2c(nc3ccccc13)C(=O)N(C1CCCCC1)C2)c1ccc(F)cc1		inconclusive: 4.47 µM [inhibitor, partial curve]
O=S(=O)(Nc1cccc(F)c1)c1ccc2[nH]c3c(c2c1)CCCCC3	inactive: -14.9%	

Two entries from above, with each value named:
COc1cc(NC(=O)COC(=O)c2[nH]c(C)c(C(C)=O)c2C)cc(OC)c1
  Potency: inconclusive: 12.6 µM [inhibitor, single point]
CCc1nn2c(=O)cc(COC(=O)C3CCCCC3)nc2s1
  activity change, negative = inhibition: inactive: -10.5%
